{
  "sequences": {"note": "Chains of the proteins cited; added tags and fusions are not shown. Lines headed by an entry give the natural chain unless they say otherwise; changes in a name come on top.", "UniProt P63092": "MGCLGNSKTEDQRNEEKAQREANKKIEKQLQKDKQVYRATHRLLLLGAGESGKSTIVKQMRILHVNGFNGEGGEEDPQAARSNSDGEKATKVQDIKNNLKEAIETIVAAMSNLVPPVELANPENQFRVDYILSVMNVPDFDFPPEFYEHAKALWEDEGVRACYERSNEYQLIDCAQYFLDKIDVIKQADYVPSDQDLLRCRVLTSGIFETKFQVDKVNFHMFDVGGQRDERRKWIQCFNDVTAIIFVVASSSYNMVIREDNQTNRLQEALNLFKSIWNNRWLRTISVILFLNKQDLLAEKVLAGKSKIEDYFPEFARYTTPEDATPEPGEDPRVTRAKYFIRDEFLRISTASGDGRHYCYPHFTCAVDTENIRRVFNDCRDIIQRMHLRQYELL", "UniProt P63094": "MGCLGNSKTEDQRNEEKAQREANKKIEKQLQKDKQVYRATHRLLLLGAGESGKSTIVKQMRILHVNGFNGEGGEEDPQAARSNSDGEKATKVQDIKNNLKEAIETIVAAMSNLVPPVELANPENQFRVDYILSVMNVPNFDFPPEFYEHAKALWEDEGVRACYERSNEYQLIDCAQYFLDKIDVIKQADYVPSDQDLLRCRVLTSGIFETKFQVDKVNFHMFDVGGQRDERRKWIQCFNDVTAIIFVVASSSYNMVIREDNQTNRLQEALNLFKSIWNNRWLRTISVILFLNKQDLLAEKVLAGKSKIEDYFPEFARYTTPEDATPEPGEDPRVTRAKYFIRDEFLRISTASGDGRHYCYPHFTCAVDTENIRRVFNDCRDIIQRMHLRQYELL", "UniProt P45974": "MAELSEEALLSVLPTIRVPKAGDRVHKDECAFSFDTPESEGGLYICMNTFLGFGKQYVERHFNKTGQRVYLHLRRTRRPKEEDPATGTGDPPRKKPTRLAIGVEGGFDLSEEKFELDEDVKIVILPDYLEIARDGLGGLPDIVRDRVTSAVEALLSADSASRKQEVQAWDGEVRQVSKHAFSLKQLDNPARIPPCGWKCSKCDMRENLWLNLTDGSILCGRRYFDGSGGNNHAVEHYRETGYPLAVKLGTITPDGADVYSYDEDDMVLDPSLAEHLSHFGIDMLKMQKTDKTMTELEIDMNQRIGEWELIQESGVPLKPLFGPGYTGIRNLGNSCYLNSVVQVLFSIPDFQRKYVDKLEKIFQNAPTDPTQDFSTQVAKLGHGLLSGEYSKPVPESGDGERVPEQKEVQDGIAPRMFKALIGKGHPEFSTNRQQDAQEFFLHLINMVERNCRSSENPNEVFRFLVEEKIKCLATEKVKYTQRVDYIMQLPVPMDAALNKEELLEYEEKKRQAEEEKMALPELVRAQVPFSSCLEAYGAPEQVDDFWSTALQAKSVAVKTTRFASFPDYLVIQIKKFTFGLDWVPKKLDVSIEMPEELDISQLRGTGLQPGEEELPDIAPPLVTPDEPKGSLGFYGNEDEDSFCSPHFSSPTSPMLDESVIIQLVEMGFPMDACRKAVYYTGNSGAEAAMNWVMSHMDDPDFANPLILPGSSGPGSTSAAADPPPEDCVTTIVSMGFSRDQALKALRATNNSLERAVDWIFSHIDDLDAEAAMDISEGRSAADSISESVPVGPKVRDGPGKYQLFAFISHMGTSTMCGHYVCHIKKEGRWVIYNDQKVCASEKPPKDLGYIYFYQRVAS", "UniProt P56399": "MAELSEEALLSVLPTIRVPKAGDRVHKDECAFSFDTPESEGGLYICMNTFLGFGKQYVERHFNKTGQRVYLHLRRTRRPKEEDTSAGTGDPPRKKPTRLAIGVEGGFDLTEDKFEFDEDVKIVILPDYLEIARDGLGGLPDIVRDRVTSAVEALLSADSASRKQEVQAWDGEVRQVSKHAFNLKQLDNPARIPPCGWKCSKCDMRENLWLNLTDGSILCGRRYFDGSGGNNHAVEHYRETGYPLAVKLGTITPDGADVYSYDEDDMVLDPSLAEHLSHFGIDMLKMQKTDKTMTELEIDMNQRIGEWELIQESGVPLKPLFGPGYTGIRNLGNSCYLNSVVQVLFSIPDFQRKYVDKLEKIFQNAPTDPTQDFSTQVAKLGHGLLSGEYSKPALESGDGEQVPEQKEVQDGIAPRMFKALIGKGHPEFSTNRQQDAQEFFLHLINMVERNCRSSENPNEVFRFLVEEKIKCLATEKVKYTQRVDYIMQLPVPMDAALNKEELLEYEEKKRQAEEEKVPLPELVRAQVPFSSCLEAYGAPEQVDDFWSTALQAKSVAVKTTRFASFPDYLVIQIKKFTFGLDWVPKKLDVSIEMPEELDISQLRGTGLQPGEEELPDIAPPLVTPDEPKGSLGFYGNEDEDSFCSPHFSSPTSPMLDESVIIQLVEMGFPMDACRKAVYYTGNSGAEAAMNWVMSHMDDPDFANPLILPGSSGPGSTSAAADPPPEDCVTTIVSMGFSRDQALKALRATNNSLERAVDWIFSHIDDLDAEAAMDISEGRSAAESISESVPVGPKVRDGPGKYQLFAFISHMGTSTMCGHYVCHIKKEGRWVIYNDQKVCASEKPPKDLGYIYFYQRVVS"},
  "source": "paper PMC11040358",
  "molecules": {"B1": {"name": "GΑSP1 (encoded by Gprasp1) (protein, UniProt Q5U4C1 1-1347)", "chain": "MTRAEVEPGAQAKAENKPGDENANAAEVEPEAPLVVRPKVRTQIMTGARPKVKPKGTPGARPKGETSTPGGAYAKCKPKAIPIARSKHDAQVWAPNKFRGESMSKMGKQCQISAADPPLLSNDSGMVAQAKCLPVDRELANMDTESIPKKANSPAGFQPSYGSEEGTNMGSWYRARPVPKGEAYENSDFKWADKPSGSPSFWNRDEASTRFRPRKSMKANNRFRHMAKQEANTMPRHKNKQEFYNISSSDSEDESGKTPWFWPKDKTKVWSKPKEEPNSRSWFRSKKEVRVESTSGSECENPTKSLFWSGEEAKSRSKPRARKGVNMRARQQAKREACSDAMSGAIDTNKKESWFLPEEKANVFSKSKTKKEPRTRAVPKEEVKTKARASTKQEARPEEEVLVGAWFWDTQESTMADRISIKTTFVEEEPIVGDWFWSEEEASVDSETCHTSRPRAKEEQVSSFCLGSGKKSSMESGPKATSKSMPVAKEDEVVIGSWFWADDEEINLQADDESIFGSWFWGTGENSLRSVGVNCEKMPKAGEKEVTDSWFWAGDVNTEAEVEEQARSASTKATIFVPWFWSEKQPNMDLGSEPCSDIMAGAEEEPIIGPWFWAKVDNSVEAEVNSKSSLEDEEEPIRSPWFGAREQTDMKYAAGIRYKPMAEAEDANKKSCVWAKEPCLYPTNRECLKSTLGEKEDTVDPWLWSNNYPRTKTITGSWLWAAEEGNIDDETGEKIKLPTLEDNAFNSWFWKENEESIVEAPKREEFRPEAEEEDIIGSWFWAGDEDRFEPAAKINEENKIASEDEDTVGSWFWGNEEASLEAVRRGTFESAPGIKEEKVTGSWFWTDKAKVGAGSQTVETGSETEEEAIFESLIWAAKKDSIQAGVKRVSKPKDDGNIAVGSWLWSSDKATKEAKTLIVSEASPENGKESVVKFGSRAKDEVINKTGSGDNCKHSTEAETIVGAWFWEGDEASFESNPVPVCKAVCEPESSAEHEPDPSRRPQSWDEVTVQFKAGPWGKAGFPPMNPFRFPKEAASLFAEMFGGKPKLVEVGPEREPEPQFPFQYDPSYRSVREIREHLKARESAQPENWSCNCIQCELRIGSEEFEELLLLMDRNRDPFIHEISKIAMGMRGASQFTRDFIRNSGVVSLIEALLNYPSSRVRTRFLENMVRMAPPYPDLNMIETYVCQICEDTFDYDLDSPDQLSGLTMITHLTATSDYHKVVVNYLAGFFYLLNSGNTKTRFHVLKLLLNLSENLVMTKRLLVTDSVSEFMDLINREESDENIQIVLAIFETISKHIQKEALFSDDDDDDEEEDAVNLEPFISAFREAEKIAKELKRKPGNQKAP"}},
  "key": {"[1]": {"biological_target": "Gnas‐Flag (Flag‐tagged Gαs) (human) (UniProt P63092)", "experiment": "co-IP; HEK293 cells overexpressing Tipe1-HA (rising doses), Gnas-Flag and USP5-Myc; IP with anti-Flag, probed with anti-Flag and anti-Myc"}, "[2]": {"biological_target": "T1, TNF‐α‐induced protein 8‐like 1 (Tipe1), endogenous in MIN6 cells (mouse (endogenous in MIN6)) (UniProt Q8K288)", "T1 sequence": "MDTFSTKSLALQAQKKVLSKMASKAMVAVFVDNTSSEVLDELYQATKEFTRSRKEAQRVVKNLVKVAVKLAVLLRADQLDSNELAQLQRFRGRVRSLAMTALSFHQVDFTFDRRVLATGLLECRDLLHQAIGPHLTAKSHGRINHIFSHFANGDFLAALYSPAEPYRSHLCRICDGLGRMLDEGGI", "experiment": "co-IP; endogenous proteins in MIN6 cell lysates; anti-Tipe1, anti-Gαs or anti-USP5 overnight at 4 °C, protein A/G magnetic beads 4 h, washed with PBST, Western blot; also after Tipe1 siRNA (Figure 5I)"}, "[3]": {"biological_target": "Gαs, the α subunit of the G‐stimulating protein, endogenous in MIN6 cells (mouse (endogenous in MIN6)) (UniProt P63094)", "experiment": "co-IP; endogenous proteins in MIN6 cell lysates; anti-Tipe1, anti-Gαs or anti-USP5 overnight at 4 °C, protein A/G magnetic beads 4 h, washed with PBST, Western blot; also after Tipe1 siRNA (Figure 5I)"}, "[4]": {"biological_target": "T2, Tipe1 (co-IP of Figures S10A, S10E and S11I,J; construct not shown) (UniProt Q8WVP5)", "T2 sequence": "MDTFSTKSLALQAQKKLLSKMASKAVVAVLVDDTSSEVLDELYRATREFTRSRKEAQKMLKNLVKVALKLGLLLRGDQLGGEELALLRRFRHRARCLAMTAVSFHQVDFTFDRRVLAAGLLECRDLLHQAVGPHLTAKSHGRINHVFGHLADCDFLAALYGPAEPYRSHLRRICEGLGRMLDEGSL", "experiment": "co-IP; in HEK293T cells (Figure S10A); tags and antibodies not shown"}, "[5]": {"biological_target": "T1, TNF‐α‐induced protein 8‐like 1 (Tipe1), endogenous in MIN6 cells (mouse (endogenous in MIN6))", "experiment": "co-IP; Figure S8A; cells and antibodies not shown"}},
  "note": "These are yes or no findings as the source states them, for the method shown. In cells and extracts the contact can be indirect. Some results given as binding are weak or reduced against the parent protein; the word gives no strength.",
  "data": [
    {"molecule": "USP5‐Myc (from UniProt P45974 1-858) (enzyme)", "values": [
      {"measurement": "binding", "setting": "[1]", "result": "binds"}
    ]},
    {"molecule": "deubiquitinase USP5, endogenous in MIN6 cells (from UniProt P56399 1-858) (enzyme)", "values": [
      {"measurement": "binding", "setting": "[2]", "result": "binds"},
      {"measurement": "binding", "setting": "[3]", "result": "binds"}
    ]},
    {"molecule": "Gαs (co-IP in HEK293T cells, Figure S10A; construct not shown) (from UniProt P63092 1-394)", "values": [
      {"measurement": "binding", "setting": "[4]", "result": "binds"}
    ]},
    {"molecule": "Gαs, the α subunit of the G‐stimulating protein, endogenous in MIN6 cells (from UniProt P63094 1-394)", "values": [
      {"measurement": "binding", "setting": "[2]", "result": "binds"}
    ]},
    {"molecule": "B1", "values": [
      {"measurement": "binding", "setting": "[5]", "result": "binds"}
    ]}
  ]
}
